Measurements taken from PMC12670160, “A drug-repurposing screen of FDA- and EMA-approved drugs identifies two NF-κB inhibitors active against eumycetoma” (Journal of Antimicrobial Chemotherapy, 2025).
Where a name gives a salt, the structure may show the parent alone. The campaign covered roughly 5,300 compounds. About 130 (2.5%) showed an effect of 50% or more. The list shows a part of the results.

system: M. mycetomatis strain mm55; conditions: primary screen, metabolic activity vs growth control; 96 h, 2 µM; inhibitor

Row | Structure (SMILES) | % viability
1 | CN1CCN(c2ccc(-c3cccc(CN4CCOCC4)c3)cc2NC(=O)c2c[nH]c(=O)cc2C(F)(F)F)CC1 [ONC0003596, oicr9429] | 102.7%
2 | CC(=O)N[C@H](Cc1c[nH]c2ccccc12)C(=O)OCc1cc(C(F)(F)F)cc(C(F)(F)F)c1 [ONC0002674, l732138] | 67.52%
3 | CCOC(=O)/C=C(C)/C=C/C=C(C)/C=C/c1c(C)cc(OC)c(C)c1C [ONC0001040, etretinate] | 82.26%
4 | CCOC(=O)Nc1nc2ccccc2[nH]1 [ONC0004223, lobendazole] | 137.9%
5 | CN1CCN(c2ccc(/C=C(\C#N)c3ccccc3Br)cc2)CC1 [ONC0002643, dg172] | 54.89%
6 | CNC(=O)c1ccc2c(c1)S(=O)(=O)c1ccccc1C2=O [ONC0002375, bw616u] | 76.21%
7 | CCS(=O)(=O)N1CCC[C@@H]2CN3CCc4cc(OC)ccc4[C@@H]3C[C@@H]21 [ONC0002617, rs79948] | 85.43%
8 | O=C(CCc1ccncc1)NNC(=O)N1Cc2ccccc2Oc2ccc(Cl)cc21 [ONC0001679, sc51089] | 66.58%
9 | N#[N+]/C=C(\[O-])CC[C@H](N)C(=O)O [ONC0002763, 6diazo5oxolnorleucine] | 81.17%
10 | CC(C)(CCCCCCCCCCC(C)(C)CC(=O)O)CC(=O)O [ONC0005311, medica16] | 99.04%
11 | Cc1nccc2[nH]c(=O)ccc12 [ONC0001963, medorinone] | 84.27%
12 | O=c1c(O)c(-c2ccc(O)cc2)oc2cc(O)cc(O)c12 [ONC0000144, kaempferol] | 93.65%
13 | C#C[C@]1(O)CC[C@H]2[C@@H]3CCC4=CC(=O)CCC4=C3C=C[C@@]21CC [ONC0002306, gestrinone] | 80.57%
14 | NC[C@@](O)(c1ccc(Cl)cc1)c1ccc(-c2cn[nH]c2)cc1 [ONC0004493, at13148] | 60.66%
15 | CC1(C)Oc2ccc(C#N)cc2[C@H](N(Cc2ncc[nH]2)c2ccc(Cl)cc2)[C@H]1O [ONC0001872, bms191095] | 47.09%
16 | N#C/C(=C(/N)Sc1ccc(N)cc1)c1ccccc1C(F)(F)F [ONC0004419, mek12inhibitor] | 139.3%
17 | COc1cc2nc(N3CCN(C(=O)C4COc5ccccc5O4)CC3)nc(N)c2cc1OC (stereo not drawn) [ONC0005340, doxazosin mesylate] | 111.1%
18 | COc1cc(OC)c(NC(=O)Nc2cc(C)on2)cc1Cl [ONC0001373, pnu120596] | 123.3%
19 | CCCCC1C(=O)N(c2ccccc2)N(c2ccc(O)cc2)C1=O (stereo not drawn) [ONC0000579, oxyphenbutazone] | 88.33%
20 | O=C(O)C1=CCCN(CCOC(c2ccc(C(F)(F)F)cc2)c2ccc(C(F)(F)F)cc2)C1 [ONC0000220, ci966] | 72.93%

Row | Structure (SMILES) | % viability
21 | O=C(CCBr)N1CCN(C(=O)CCBr)CC1 [ONC0002434, pipobroman] | 85.12%
22 | Cc1cc(NC(=O)NCCN2CCC(O)(Cc3ccccc3)CC2)c2ccccc2n1 [ONC0001367, palosuran] | 77.55%
23 | CCN(CC)C(=O)Nc1ccc(OCC(O)CNC(C)(C)C)c(C(C)=O)c1 (stereo not drawn) [ONC0002160, celiprolol] | 87.56%
24 | O[C@H]([C@H](O)[C@@H]1CO1)[C@H]1CO1 [ONC0001201, val083] | 107%
25 | CCN(CC)CCOCCOC(=O)C1(c2ccccc2)CCCC1 [ONC0000642, carbetapentane citrate] | 140.3%
26 | CC(C)C[C@@H](NC(=O)OCC1c2ccccc2-c2ccccc21)C(=O)O [ONC0003062, npc15199] | 87.63%
27 | COc1ccc(Oc2c(Cl)cnn(C3c4ccccc4-c4ccccc43)c2=O)cc1 [ONC0000259, cym50769] | 100.2%
28 | CC#CCn1c(N2CCC[C@@H](N)C2)nc2c1c(=O)n(Cc1nc(C)c3ccccc3n1)c(=O)n2C [ONC0002395, linagliptin] | 96.9%
29 | C=C[C@@H]1C2=CCOC(=O)C2=CO[C@H]1O[C@@H]1O[C@H](CO)[C@@H](O)[C@H](O)[C@H]1O [ONC0005538, gentiopicrin] | 86.38%
30 | CCOC(=O)c1ccc(N(C)c2csc(-c3ccccc3)n2)cc1 [ONC0001341, neuropathiazol] | 82.26%
31 | CCC(C)[C@H]1O[C@]2(C=C[C@@H]1C)C[C@@H]1C[C@@H](C/C=C(\C)[C@@H](OC3C[C@H](OC)C(O[C@H]4C[C@H](OC)[C@@H](O)[C@H](C)O4)[C@H](C)O3)[C@@H](C)/C=C/C=C3\CO[C@@H]4[C@H](O)C(C)=C[C@@H](C(=O)O1)[C@]34O)O2 (stereo partly drawn) [ONC0004110, abamectin avermectin b1a shown] | 109.8%
32 | O=P(O)(O)C(O)(Cn1ccnc1)P(=O)(O)O [ONC0005272, zoledronic acid zoledronate] | 116.2%
33 | COC(=O)[C@H](CC(C)C)NC(=O)c1ccc(NC[C@@H](N)CS)cc1-c1cccc2ccccc12 [ONC0002283, ggti298] | 81.53%
34 | CC(C)(CO)[C@@H](O)C(=O)NCCC(=O)O [ONC0004104, pantothenic acidd na salt] | 122.7%
35 | c1ccc(Cn2c(-c3ccc(OC[C@H](C4CCNCC4)n4c(-c5ccccc5)nc5ccccc54)cc3)nc3ccccc32)cc1 [ONC0001286, deltarasin] | 89.93%
36 | O=C(Nc1cnc(Cl)nc1)c1ccc(F)c(F)c1 [ONC0001921, ica069673] | 29.87%
37 | CCN(CCCCOC(=O)c1ccc(OC)c(OC)c1)C(C)Cc1ccc(OC)cc1 (stereo not drawn) [ONC0000662, mebeverine hydrochloride] | 77.36%
38 | COc1cc(NC(=O)c2ccccn2)ccc1Cl [ONC0000075, vu0361737] | 122.2%
39 | Cc1cc(C(C)(C)C)cc(C)c1CC1=NCCN1 [ONC0003456, xylometazoline hydrochloride] | 64.58%

2 successive entries already listed, for reference:
Row | Structure (SMILES) | % viability
5 | CN1CCN(c2ccc(/C=C(\C#N)c3ccccc3Br)cc2)CC1 [ONC0002643, dg172] | 54.89%
6 | CNC(=O)c1ccc2c(c1)S(=O)(=O)c1ccccc1C2=O [ONC0002375, bw616u] | 76.21%
